No constants are given. Whether binding was seen depends on the method and setting. Binding seen in cells or lysates may run through a third protein. Here binding means that the protein was enriched with, or labelled near, the bait; the list need not be complete. Sequences can lack the tags named with a protein.
Target: T1, 53BP1-V5 fusion protein (endogenous TP53BP1 locus with a biallelic C-terminal V5-epitope tag) (human (endogenous in hTERT-RPE1)), Q12888
T1 chain: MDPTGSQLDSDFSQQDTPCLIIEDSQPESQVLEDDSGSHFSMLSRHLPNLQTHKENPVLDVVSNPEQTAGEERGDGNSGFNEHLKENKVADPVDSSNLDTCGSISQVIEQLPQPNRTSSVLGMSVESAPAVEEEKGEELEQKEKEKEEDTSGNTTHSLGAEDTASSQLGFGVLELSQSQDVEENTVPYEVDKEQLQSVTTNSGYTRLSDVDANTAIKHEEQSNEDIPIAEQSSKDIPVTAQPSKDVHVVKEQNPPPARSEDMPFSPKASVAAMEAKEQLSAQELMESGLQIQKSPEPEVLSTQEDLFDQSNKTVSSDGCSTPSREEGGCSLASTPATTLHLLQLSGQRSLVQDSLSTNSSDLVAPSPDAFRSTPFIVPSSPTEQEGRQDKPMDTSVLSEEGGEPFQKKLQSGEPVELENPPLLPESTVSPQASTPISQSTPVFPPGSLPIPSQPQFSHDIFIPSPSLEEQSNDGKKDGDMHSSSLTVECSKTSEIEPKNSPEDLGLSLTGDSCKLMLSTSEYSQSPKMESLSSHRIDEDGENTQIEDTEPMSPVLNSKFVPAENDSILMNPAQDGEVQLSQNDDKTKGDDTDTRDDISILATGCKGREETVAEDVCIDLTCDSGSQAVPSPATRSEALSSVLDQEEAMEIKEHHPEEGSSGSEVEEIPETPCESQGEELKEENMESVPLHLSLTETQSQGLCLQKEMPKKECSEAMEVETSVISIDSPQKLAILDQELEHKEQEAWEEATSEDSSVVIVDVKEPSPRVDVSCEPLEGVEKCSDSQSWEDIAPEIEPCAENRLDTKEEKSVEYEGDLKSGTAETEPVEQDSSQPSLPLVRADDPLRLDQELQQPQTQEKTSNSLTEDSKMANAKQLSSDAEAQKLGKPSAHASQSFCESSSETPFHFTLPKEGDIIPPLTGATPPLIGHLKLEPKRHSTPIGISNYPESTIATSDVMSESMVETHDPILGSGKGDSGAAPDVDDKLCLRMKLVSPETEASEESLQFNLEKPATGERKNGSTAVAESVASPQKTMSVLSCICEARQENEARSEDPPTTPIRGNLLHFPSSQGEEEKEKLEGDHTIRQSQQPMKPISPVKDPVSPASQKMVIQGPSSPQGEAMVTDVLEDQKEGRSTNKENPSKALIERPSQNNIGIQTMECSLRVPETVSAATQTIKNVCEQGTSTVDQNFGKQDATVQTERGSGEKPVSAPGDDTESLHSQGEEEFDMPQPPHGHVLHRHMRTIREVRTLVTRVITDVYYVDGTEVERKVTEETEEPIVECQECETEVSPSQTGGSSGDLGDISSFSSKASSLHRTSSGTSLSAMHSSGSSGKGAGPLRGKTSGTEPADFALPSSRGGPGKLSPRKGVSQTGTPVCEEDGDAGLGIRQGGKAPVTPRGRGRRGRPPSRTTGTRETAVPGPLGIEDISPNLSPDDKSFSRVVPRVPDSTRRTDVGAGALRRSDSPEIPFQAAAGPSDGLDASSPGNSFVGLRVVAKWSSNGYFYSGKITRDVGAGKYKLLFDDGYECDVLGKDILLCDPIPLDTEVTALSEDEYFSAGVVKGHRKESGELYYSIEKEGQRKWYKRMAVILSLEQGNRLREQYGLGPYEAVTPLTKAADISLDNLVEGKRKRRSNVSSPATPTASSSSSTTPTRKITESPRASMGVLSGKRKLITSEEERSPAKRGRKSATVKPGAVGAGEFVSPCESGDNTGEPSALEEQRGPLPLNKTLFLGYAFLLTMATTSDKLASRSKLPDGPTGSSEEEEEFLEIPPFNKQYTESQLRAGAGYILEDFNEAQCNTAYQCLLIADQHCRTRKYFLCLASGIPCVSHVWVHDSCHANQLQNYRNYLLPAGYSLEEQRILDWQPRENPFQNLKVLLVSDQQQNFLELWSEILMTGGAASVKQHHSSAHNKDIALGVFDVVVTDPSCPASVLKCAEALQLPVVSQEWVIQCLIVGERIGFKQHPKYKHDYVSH
Assay: affinity purification with mass spectrometry
Settings: remark: other sources report otherwise

binding: binds
B1: USP28 (ubiquitin-specific protease), Q96RU2 1-1077 (enzyme)
chain: MTAELQQDDAAGAADGHGSSCQMLLNQLREITGIQDPSFLHEALKASNGDITQAVSLLTDERVKEPSQDTVATEPSEVEGSAANKEVLAKVIDLTHDNKDDLQAAIALSLLESPKIQADGRDLNRMHEATSAETKRSKRKRCEVWGENPNPNDWRRVDGWPVGLKNVGNTCWFSAVIQSLFQLPEFRRLVLSYSLPQNVLENCRSHTEKRNIMFMQELQYLFALMMGSNRKFVDPSAALDLLKGAFRSSEEQQQDVSEFTHKLLDWLEDAFQLAVNVNSPRNKSENPMVQLFYGTFLTEGVREGKPFCNNETFGQYPLQVNGYRNLDECLEGAMVEGDVELLPSDHSVKYGQERWFTKLPPVLTFELSRFEFNQSLGQPEKIHNKLEFPQIIYMDRYMYRSKELIRNKRECIRKLKEEIKILQQKLERYVKYGSGPARFPLPDMLKYVIEFASTKPASESCPPESDTHMTLPLSSVHCSVSDQTSKESTSTESSSQDVESTFSSPEDSLPKSKPLTSSRSSMEMPSQPAPRTVTDEEINFVKTCLQRWRSEIEQDIQDLKTCIASTTQTIEQMYCDPLLRQVPYRLHAVLVHEGQANAGHYWAYIYNQPRQSWLKYNDISVTESSWEEVERDSYGGLRNVSAYCLMYINDKLPYFNAEAAPTESDQMSEVEALSVELKHYIQEDNWRFEQEVEEWEEEQSCKIPQMESSTNSSSQDYSTSQEPSVASSHGVRCLSSEHAVIVKEQTAQAIANTARAYEKSGVEAALSEVMLSPAMQGVILAIAKARQTFDRDGSEAGLIKAFHEEYSRLYQLAKETPTSHSDPRLQHVLVYFFQNEAPKRVVERTLLEQFADKNLSYDERSISIMKVAQAKLKEIGPDDMNMEEYKKWHEDYSLFRKVSVYLLTGLELYQKGKYQEALSYLVYAYQSNAALLMKGPRRGVKESVIALYRRKCLLELNAKAASLFETNDDHSVTEGINVMNELIIPCIHLIINNDISKDDLDAIEVMRNHWCSYLGQDIAENLQLCLGEFLPRLLDPSAEIIVLKEPPTIRPNSPYDLCSRFAAVMESIQGVSTVTVK
